Laboratory results published in paper PMC8304009.
Results are given in words; binding and its absence hold for the method and conditions named. In cells and extracts the contact can be indirect. Some results given as binding are weak or reduced against the parent protein; the word gives no strength. Where a sequence is shown, tags or fusion partners need not be part of it.

Sequences of proteins named here, by UniProt entry; tags and fusion partners are left off.
UniProt P51948: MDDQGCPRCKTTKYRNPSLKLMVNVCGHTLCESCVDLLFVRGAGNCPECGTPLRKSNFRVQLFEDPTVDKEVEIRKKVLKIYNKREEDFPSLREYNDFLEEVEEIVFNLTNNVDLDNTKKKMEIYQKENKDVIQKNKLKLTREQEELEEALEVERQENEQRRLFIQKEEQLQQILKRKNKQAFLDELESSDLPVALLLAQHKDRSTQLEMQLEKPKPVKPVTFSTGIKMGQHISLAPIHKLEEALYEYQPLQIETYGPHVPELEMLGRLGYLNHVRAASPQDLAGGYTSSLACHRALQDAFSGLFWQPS
UniProt P50750: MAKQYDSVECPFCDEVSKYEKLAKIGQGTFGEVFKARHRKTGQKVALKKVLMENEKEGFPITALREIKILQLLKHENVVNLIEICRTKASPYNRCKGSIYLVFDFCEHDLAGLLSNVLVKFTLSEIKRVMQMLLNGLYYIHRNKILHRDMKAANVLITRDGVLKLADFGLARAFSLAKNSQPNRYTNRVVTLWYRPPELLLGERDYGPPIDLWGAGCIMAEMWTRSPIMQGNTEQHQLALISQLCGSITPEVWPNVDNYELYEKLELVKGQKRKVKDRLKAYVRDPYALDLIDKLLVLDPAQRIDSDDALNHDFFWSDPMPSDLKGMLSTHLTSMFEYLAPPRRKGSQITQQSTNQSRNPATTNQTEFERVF
UniProt P50613: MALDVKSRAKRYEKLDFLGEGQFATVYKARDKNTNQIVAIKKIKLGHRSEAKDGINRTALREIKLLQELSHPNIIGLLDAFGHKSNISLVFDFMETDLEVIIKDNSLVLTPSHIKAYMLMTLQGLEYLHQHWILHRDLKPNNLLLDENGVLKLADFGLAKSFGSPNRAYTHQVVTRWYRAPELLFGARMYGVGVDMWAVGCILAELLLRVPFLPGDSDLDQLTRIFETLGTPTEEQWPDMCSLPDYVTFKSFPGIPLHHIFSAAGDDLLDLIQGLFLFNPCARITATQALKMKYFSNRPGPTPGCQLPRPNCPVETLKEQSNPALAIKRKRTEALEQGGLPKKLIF
UniProt P51946: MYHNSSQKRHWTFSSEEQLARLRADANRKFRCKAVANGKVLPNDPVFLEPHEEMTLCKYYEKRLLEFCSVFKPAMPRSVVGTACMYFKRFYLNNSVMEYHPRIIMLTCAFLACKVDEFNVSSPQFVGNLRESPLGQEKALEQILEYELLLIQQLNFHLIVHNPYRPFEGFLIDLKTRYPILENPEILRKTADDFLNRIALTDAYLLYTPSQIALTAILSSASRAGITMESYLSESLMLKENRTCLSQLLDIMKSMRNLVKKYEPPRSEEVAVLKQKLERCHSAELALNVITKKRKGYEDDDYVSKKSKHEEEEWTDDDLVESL

How the values were obtained:
Assay in all cases: co-IP; transiently transfected HEK293T cells; lysis buffer 20 mM Tris-Cl pH 7.5, 0.5% NP-40, 150 mM NaCl; immunoprecipitation with anti-Flag antibody and protein G-agarose at 4 °C; Western blot
[1] = target: Flag-tagged MNAT1 (human) (UniProt P51948)
CDK9 (human) = CDK9 (human) (UniProt P50750)
Flag-tagged CDK7 (human) = Flag-tagged CDK7 (human) (UniProt P50613)
[2] = target: Flag-tagged cyclin H (human) (UniProt P51946)

binding [1]: binds
binding (CDK9 (human)): binds
binding (Flag-tagged CDK7 (human)): binds
binding [2]: binds
B1: HA-OGFOD1 (protein, UniProt Q8N543 1-542)
chain: MNGKRPAEPGPARVGKKGKKEVMAEFSDAVTEETLKKQVAEAWSRRTPFSHEVIVMDMDPFLHCVIPNFIQSQDFLEGLQKELMNLDFHEKYNDLYKFQQSDDLKKRREPHISTLRKILFEDFRSWLSDISKIDLESTIDMSCAKYEFTDALLCHDDELEGRRIAFILYLVPPWDRSMGGTLDLYSIDEHFQPKQIVKSLIPSWNKLVFFEVSPVSFHQVSEVLSEEKSRLSISGWFHGPSLTRPPNYFEPPIPRSPHIPQDHEILYDWINPTYLDMDYQVQIQEEFEESSEILLKEFLKPEKFTKVCEALEHGHVEWSSRGPPNKRFYEKAEESKLPEILKECMKLFRSEALFLLLSNFTGLKLHFLAPSEEDEMNDKKEAETTDITEEGTSHSPPEPENNQMAISNNSQQSNEQTDPEPEENETKKESSVPMCQGELRHWKTGHYTLIHDHSKAEFALDLILYCGCEGWEPEYGGFTSYIAKGEDEELLTVNPESNSLALVYRDRETLKFVKHINHRSLEQKKTFPNRTGFWDFSFIYYE
